According to patent US8168681B2, “Amidoacetonitrile compounds and pesticidal composition thereof” (Novartis AG, priority 2008, dated 2012):
Some results were stated once for a whole list of compounds, not compound by compound.

Experiments:
[1] = tested on: Trichostrongylus colubriformis; test: In-vivo test on Mongolian gerbils using peroral application; set-up: species or system Mongolian gerbils (Meriones unguiculatus); conditions: gerbil, dose of 0.32 mg/kg, worm count 3 days after treatment
Description: (§1) Six to eight week old Mongolian gerbils are infected through a stomach tube with ca. 2000 third instar larvae each of T. colubriformis and H. contortus. 6 days after infection, the gerbils are treated by peroral application with the test compounds, dissolved in a mixture of 2 parts DMSO and 1 part polyethylene glycol (PEG 400). On day 9 (3 days after treatment), when most of the H. contortus that are still present are late 4th instar larvae and most of the T. colubriformis are immature adults, the gerbils are killed in order to count the worms. The efficacy is calculated as the % reduction of the number of worms in each gerbil, compared with the geometric average of number of worms from 6 infected and untreated gerbils.
(§2) The above described in-vivo test on Trichostrongylus colubriformis (Tc) and Haemonchus contortus ([…]) was repeated with compounds 1.2, 1.3 and 1.5 from Table 1 and with the compounds of Examples 1a and 3a on pages 22-25 of WO 2008/96231.

[2] = tested on: Haemonchus contortus; test: as above; set-up: species or system Mongolian gerbils (Meriones unguiculatus); conditions: gerbil, dose of 0.32 mg/kg, worm count 3 days after treatment
Description: as §1, §2

SMILES	efficacy (% reduction of number of worms) against T. colubriformis [1]	efficacy (% reduction of number of worms) against H. contortus [2]
CC(C#N)(COc1cc(C#N)ccc1Oc1ccc(F)cc1Br)NC(=O)c1ccc(S(F)(F)(F)(F)F)cc1 (stereo not drawn) [Compound 1.3, N-[1-cyano-1-methyl-2-(5-cyano-2-{2-bromo-4-fluorophenoxy}-phenoxy)-ethyl]-4-pentafluorothio-benzamide]	more than 95%	more than 95%
CC(C#N)(COc1cc(C#N)ccc1Oc1ccc(Cl)cc1Cl)NC(=O)c1ccc(S(F)(F)(F)(F)F)cc1 (stereo not drawn) [Compound 1.2, N-[1-cyano-1-methyl-2-(5-cyano-2-{2,4-dichlorophenoxy}-phenoxy)-ethyl]-4-pentafluorothio-benzamide]	more than 95%	more than 95%
CC(C#N)(COc1cc(C#N)ccc1Oc1ccc(OC(F)(F)F)cc1Cl)NC(=O)c1ccc(S(F)(F)(F)(F)F)cc1 (stereo not drawn) [Compound 1.5, N-[1-cyano-1-methyl-2-(5-cyano-2-{2-chloro-4-trifluoromethoxy-phenoxy}-phenoxy)-ethyl]-4-pentafluorothio-benzamide]	more than 95%	more than 95%
